From publication PMC2770460
Results are given in words; binding and its absence hold for the method and conditions named. Some binding calls cover weakened binding; strength is not graded here.

Chains of the proteins cited; added tags and fusions are not shown. Lines headed by an entry give the natural chain unless they say otherwise; changes in a name come on top.
UniProt P12270: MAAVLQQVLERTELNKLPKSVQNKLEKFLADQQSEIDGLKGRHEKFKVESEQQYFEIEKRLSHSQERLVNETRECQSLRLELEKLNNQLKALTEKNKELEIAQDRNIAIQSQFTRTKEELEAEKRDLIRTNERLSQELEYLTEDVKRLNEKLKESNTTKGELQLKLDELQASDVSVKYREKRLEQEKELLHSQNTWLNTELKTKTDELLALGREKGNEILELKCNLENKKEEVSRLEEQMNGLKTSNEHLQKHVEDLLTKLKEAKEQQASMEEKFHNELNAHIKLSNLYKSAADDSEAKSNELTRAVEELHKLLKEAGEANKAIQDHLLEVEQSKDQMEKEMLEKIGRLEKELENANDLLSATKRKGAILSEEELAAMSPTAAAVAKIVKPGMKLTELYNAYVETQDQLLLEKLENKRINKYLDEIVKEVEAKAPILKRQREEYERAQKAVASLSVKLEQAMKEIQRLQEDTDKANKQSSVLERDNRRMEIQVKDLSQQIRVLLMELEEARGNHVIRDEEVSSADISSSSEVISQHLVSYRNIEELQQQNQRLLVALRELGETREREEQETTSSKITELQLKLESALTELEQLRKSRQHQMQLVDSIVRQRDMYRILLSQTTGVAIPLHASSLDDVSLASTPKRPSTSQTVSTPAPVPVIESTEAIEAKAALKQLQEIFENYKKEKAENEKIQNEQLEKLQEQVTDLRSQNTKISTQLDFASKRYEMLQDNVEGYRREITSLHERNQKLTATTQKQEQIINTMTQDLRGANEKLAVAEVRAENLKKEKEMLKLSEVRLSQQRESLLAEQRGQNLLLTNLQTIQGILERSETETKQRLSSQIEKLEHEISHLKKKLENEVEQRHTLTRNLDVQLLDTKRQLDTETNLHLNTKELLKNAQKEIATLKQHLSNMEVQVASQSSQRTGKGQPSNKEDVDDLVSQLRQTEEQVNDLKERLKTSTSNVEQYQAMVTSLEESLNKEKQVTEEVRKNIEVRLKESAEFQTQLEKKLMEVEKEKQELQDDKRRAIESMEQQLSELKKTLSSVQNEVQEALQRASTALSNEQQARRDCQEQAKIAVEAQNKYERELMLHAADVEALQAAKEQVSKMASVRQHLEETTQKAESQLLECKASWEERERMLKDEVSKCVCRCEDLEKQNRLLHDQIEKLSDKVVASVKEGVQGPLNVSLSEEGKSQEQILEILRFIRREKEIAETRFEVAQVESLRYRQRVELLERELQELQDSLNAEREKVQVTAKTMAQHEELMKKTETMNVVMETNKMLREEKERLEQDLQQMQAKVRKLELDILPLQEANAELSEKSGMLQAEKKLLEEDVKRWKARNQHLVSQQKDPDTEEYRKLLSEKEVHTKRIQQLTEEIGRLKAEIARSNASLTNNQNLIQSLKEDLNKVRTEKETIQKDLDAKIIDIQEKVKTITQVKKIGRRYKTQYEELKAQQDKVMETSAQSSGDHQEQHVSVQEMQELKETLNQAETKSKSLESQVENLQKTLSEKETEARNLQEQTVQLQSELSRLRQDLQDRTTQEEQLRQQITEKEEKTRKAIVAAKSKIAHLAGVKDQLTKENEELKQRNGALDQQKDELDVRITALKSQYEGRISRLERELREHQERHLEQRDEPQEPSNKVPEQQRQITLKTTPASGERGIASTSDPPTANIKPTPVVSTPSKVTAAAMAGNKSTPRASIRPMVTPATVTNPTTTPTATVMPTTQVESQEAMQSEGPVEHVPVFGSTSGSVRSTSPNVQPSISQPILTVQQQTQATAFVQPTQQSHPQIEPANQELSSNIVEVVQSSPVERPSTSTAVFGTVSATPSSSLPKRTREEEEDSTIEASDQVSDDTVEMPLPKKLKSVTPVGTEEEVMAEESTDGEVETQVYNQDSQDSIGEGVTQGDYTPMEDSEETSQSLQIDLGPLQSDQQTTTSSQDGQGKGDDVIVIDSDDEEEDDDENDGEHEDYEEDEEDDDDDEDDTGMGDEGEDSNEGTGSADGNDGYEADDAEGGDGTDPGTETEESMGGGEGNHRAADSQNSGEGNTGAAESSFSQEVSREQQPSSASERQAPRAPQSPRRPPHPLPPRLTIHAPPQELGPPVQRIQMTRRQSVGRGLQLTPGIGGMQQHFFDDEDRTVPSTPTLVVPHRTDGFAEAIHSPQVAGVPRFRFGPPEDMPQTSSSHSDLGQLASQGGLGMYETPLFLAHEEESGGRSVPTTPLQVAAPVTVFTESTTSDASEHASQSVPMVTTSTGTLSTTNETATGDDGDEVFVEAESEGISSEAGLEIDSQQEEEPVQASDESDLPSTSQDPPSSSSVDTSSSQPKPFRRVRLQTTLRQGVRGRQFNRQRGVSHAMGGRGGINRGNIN
UniProt Q14974: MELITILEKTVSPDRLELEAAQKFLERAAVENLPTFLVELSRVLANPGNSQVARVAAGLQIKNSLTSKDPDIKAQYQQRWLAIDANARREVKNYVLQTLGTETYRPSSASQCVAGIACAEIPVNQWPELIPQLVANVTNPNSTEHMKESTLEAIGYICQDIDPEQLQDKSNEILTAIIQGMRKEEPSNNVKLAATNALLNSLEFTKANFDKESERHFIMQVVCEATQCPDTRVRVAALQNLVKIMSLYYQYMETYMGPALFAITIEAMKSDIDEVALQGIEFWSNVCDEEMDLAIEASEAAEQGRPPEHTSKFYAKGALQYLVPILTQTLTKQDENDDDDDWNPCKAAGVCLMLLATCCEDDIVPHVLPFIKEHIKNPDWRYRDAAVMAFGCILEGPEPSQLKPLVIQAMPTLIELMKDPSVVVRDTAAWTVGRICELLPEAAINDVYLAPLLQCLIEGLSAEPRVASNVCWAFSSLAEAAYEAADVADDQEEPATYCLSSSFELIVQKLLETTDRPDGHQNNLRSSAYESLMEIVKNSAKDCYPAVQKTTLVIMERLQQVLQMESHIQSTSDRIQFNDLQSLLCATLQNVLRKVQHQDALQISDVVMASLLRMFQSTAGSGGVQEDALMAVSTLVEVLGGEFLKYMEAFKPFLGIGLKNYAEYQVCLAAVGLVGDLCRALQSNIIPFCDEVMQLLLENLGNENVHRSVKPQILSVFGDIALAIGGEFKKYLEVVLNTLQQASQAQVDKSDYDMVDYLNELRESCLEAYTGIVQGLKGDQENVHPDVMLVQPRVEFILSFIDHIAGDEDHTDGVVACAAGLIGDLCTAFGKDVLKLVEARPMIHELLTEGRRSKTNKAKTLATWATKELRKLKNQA

Columns and labels:
[1] = target: recombinant full-length mammalian Tpr (6xHis-Tpr) (not stated (mammalian)) (UniProt P12270); assay: ELISA; solid phase binding assay: Maxisorp microtiter plates coated with 25 ng of Tpr or C-Tpr; increasing concentrations of the soluble protein; bound protein detected with primary antibodies and horseradish peroxidase-conjugated secondary antibodies (TMB); apparent Kd from B = Bmax x Y/(Kd + Y); CRM1, NES and RanGTP at equimolar concentrations; both purified
[2] = target: recombinant full-length mammalian Tpr (6xHis-Tpr) (not stated (mammalian)) (UniProt P12270); assay: ELISA; competition-binding assay: plates coated with 25 ng Tpr; importin β constant at 60 nM, ΔIBB-importin α 0-600 nM; importin β detected by anti-S-tag, ΔIBB-importin α by its antibody; percentage of highest level of binding; both purified
[3] = target: recombinant full-length mammalian Tpr (6xHis-Tpr) (not stated (mammalian)) (UniProt P12270); assay: ELISA; solid phase assay: 100 nM importin β on Tpr adsorbed to microtiter wells, without or with 0.1, 0.2, 0.5 and 1 μM RanGMP-PNP or RanGDPβS; both purified

Question: Which binding [1] does the source give for “CRM1 (from UniProt O14980 1-1071) (other; other documents disagree on this pair)” here?
Answer: no binding

Question: What does the source list for “His-S-tag-importin β (from UniProt Q14974 1-876)”?
Answer: binding [2]: binds; binding [3]: binds

Question: With “importin β I178D (from UniProt Q14974 1-876)” as the substance, how does the binding [1] read?
Answer: no binding
